The data set is described as follows: general procedure: peptide synthesis; crosslinked polystyrene grafted with polyethyleneglycol chains, p-hydroxymethylphenoxyacetic acid linker, Fmoc-Ile prelo; HOAt esters prepared in situ with 1,3-diisopropylcarbodiimide. The following applies: whole synthesis.

Results on one substance are retold here after patent US6103697 (dated 2000).

H-Gly-Pro-Cys-Ile-OH registered an isolated mass of 8.5 mg. This substance also registered a crude mass (scale 81 μmol) of 21 mg. Further, the isolated yield (scale of the general procedure 81 μmol) is on record as 55%.
